In PMC6459286, “Intestinal TGR5 agonism improves hepatic steatosis and insulin sensitivity in Western diet-fed mice” (American Journal of Physiology - Gastrointestinal and Liver …, 2019):

Test system: P-gp
Assay: MDCK bidirectional permeability assay
Settings: dog; for recovery: with verapamil 100 µM on the A and B sides, + verapamil 100 μM

Papp B→A at 10 µM: 0.64 ×10⁻⁶ cm/s
recovery (A→B): 113%
recovery (B→A): 106%
SMILES: CC(C)NCC(O)COc1ccc(CC(N)=O)cc1 (stereo not drawn) [Atenolol]
